Data from paper PMC5432311.
Results are given in words; binding and its absence hold for the method and conditions named. Binding seen in cells or lysates may run through a third protein. Some binding calls cover weakened binding; strength is not graded here.

Chains of the proteins cited; added tags and fusions are not shown. Residues count along the entry.
UniProt O14746: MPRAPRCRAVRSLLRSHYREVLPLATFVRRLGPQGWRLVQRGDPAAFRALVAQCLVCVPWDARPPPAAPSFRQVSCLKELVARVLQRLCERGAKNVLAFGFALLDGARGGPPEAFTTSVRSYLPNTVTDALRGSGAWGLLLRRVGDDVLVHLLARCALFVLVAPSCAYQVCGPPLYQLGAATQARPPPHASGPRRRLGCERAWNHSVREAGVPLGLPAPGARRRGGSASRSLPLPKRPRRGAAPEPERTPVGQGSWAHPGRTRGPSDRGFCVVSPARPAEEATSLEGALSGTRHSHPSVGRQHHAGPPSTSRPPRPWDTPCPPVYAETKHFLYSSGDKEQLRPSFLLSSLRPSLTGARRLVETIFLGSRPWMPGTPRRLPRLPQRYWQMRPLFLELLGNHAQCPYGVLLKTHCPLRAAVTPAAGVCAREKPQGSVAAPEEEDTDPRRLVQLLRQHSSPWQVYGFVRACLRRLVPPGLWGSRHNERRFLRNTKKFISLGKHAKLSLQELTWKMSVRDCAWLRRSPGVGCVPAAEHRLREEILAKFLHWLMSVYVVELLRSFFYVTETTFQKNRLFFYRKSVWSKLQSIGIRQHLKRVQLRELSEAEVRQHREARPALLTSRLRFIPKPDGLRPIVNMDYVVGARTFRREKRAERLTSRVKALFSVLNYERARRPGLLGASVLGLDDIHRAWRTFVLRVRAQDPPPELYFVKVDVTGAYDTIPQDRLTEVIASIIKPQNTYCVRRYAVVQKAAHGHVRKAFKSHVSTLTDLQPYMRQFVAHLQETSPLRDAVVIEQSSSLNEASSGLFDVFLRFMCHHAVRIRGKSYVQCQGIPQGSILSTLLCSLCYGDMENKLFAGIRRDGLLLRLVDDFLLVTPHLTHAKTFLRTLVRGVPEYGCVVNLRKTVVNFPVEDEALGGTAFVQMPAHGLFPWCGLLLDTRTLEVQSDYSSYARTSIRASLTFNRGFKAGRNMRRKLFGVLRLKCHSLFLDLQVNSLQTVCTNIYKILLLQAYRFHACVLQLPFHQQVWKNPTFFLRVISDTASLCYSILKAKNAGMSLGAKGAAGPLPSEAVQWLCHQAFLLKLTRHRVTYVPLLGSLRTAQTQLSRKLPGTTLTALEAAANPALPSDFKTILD
UniProt P19838, residues 1-433: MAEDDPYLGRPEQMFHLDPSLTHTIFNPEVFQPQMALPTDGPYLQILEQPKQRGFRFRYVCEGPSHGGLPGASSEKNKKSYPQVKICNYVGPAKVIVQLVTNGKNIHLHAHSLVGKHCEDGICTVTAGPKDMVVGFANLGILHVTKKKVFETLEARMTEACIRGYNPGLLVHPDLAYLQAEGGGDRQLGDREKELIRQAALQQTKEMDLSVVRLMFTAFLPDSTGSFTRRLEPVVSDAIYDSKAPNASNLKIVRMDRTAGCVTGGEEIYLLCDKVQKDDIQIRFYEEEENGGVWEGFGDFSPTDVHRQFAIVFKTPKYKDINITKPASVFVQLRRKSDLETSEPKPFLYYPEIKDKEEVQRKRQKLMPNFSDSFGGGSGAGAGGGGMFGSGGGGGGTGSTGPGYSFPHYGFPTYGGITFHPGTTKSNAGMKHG
UniProt Q04206: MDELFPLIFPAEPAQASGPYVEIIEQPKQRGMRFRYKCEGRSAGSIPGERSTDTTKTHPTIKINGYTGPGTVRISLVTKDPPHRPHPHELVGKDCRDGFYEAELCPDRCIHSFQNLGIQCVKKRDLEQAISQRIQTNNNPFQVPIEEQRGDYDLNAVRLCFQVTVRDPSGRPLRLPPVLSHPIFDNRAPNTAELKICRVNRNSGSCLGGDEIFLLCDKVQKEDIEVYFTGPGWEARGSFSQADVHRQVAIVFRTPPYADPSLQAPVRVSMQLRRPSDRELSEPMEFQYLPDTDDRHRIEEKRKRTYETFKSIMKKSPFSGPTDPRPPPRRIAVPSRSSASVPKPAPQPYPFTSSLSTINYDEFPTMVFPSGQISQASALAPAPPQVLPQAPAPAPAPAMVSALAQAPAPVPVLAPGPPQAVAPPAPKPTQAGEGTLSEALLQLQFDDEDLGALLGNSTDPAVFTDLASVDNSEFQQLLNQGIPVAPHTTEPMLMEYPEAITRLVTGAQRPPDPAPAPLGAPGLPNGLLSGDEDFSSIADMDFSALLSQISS

Biological target: human telomerase reverse transcriptase (hTERT) (human) (UniProt O14746)
Assay: co-IP; MKN45 cell line; which protein was precipitated and which was blotted is not told; no Co-IP methods given

binding	Substance
binds	p50 subunit of NF-κB (from UniProt P19838 1-433)
binds	p65 subunit of NF-κB (from UniProt Q04206 1-551)
